{
  "source": "patent US20200011856A1",
  "about": "“Method for Determining the Effectiveness of Treatment for the Prevention of Heartworm Disease” (priority 2017, published 2020)",
  "system": "Haemonchus contortus",
  "assay": "Haemonchus contortus L3 infection of control and MPA-treated NSG mice, worm and egg recovery",
  "type": "in vivo",
  "settings": "pilot experiment; mice infected with 500 or 1,000 larvae; necropsied over 8 weeks",
  "note": "For at least one compound, name, drawing or mass did not settle the structure.",
  "data": [
    {"smiles": "CC(=O)OCC(=O)[C@@]1(O)CC[C@H]2[C@@H]3C[C@H](C)C4=CC(=O)C=C[C@]4(C)[C@H]3[C@@H](O)C[C@@]21C", "note": "[MPA, methylprednisolone acetate]", "values": [
      {"measurement": "Effect of steroid treatment on H. contortus worm recoveries", "value": "did not increase worm recoveries"}
    ]}
  ]
}
